# For at least one compound, name, drawing or mass did not settle the structure.
# Tests used:
# SCD enzyme = target: T1, SCD enzyme (Rattus norvegicus, UniProt P07308); test: Plasma desaturation index (DI) in ZDF rats after treatment (Example 2); type: in vivo
# T1 construct: indicator of endogenous SCD1 activity; from tissue; host or cells: living male Zucker Diabetic Fatty rats, dosed orally
# T1 sequence (P07308 1-358): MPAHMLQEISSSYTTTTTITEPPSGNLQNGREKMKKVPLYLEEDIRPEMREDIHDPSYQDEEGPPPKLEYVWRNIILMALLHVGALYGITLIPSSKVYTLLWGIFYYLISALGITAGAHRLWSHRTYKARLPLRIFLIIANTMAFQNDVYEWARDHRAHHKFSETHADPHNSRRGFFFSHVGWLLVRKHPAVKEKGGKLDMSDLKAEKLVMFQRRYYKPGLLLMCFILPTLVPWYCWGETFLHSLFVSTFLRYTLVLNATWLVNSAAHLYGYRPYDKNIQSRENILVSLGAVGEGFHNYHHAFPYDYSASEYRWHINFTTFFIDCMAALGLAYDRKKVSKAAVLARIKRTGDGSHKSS
# [1] = Effect of SCD-1 inhibitor and rosiglitazone co-administration on body weight in ZDF rats (Example 1); type: in vivo, Male Zucker Diabetic Fatty Rats (ZDF); details: 6 weeks study, FIG. 1 / table 6
# Protocol: Male Zucker Diabetic Fatty Rats (ZDF) began treatment at the age of 7 weeks of age. Animals were housed three to a cage in a temperature, humidity and light controlled room. The animals were fed a standard rodent diet and had free access to water. Animals were randomized into groups of 9 and placed in the following experimental groups for daily dosing (10:30 am) as described in table 5 below. Animals were weighed three times per week. Food intake was recorded three times per week. XEN 1 is a representative SCD-1 inhibitor compound of the invention. The formulations were: • Vehicle=1% CMC:0.1% Tween 20:10% PG • Rosi-10=rosiglitazone 10 mg/kg in 1% CMC:0.1% Tween 20:10% PG • Rosi-10+XEN1=rosiglitazone 10 mg/kg+XEN1 5 mg/kg in 1% CMC:0.1% Tween 20:10% PG • XEN1=XEN1 5 mg/kg in 1% CMC:0.1% Tween 20:10% PG
# [2] = plasma triglycerides, after treatment, mean +/- standard deviation, rosiglitazone 10 mg/kg, XEN1 5 mg/kg
smiles,measurement,setting,value
CN(CCOc1ccc(CC2SC(=O)NC2=O)cc1)c1ccccn1 (stereo not shown) [rosiglitazone],"Desaturation index (DI), effect in words",SCD enzyme; all lipid fractions analyzed,increases in DI for all lipid fractions analyzed
same,Plasma desaturation index (DI) C16:1n7/C16:0,SCD enzyme; [2],0.193 +/− 0.013
same,Plasma desaturation index (DI) C18:1n9/C18:0,SCD enzyme; [2],9.217 +/− 2.146
same,Change in body weight (in words),[1],body weight gain is observed

# — patent US7919484B2, “Combination therapy” (Xenon Pharmaceuticals Inc., priority 2005, dated 2011)
